Laboratory results taken from PubChem BioAssay AID493014 (National Center for Advancing Translational Sciences (NCATS), 2011).
Hit rate of the full screen: of about 340,000 compounds, about 170 (0.05%) were called active. The inconclusive results got no clear call from the source; some entries with a clear call stand among them for comparison. The call rests on the fitted dose curve; in most records, active means well fitted inhibition curve with a large enough effect in the signal ratio, with a control signal flat (not every such curve was filed as active); inconclusive means small, poorly fitted or top-dose-only effect, or effect the other way, or a change in a side signal; inactive means flat fitted curve, though single readings scatter; the % refers to the signal ratio. Potencies of inconclusive entries are doubtful fits and often do not repeat.
Potency means the concentration at half of the fitted maximal effect.

Assay: qHTS Assay to Find Inhibitors of Chronic Active B-Cell Receptor Signaling;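 on activity change, negative = inhibition: plate controls were basal doxycycline-induced cells for no effect and cells given 10 µM MG132 for full effect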
Details: ABC-DLBCL IkBa-CBG/CBR reporter, luminescence ratio (green luciferase fused to IkBa over red control in TMD8 lymphoma cells), 4 h; activity change, negative = inhibition: at 46.1 µM (top of the series)
Summary of the method: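 TMD8 ABC-DLBCL cells carrying doxycycline-inducible green luciferase fused to IkappaBalpha plus unfused red luciferase were exposed to compounds (up to 46 uM) for 4 hrs at 37C. Activity came from the overlap-corrected green/red luminescence ratio.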
With `CCn1c(=S)[nH]c2c(c1=O)C(C)(C)Cc1ccccc1-2` the activity change, negative = inhibition was “inactive”. With `OC(C#Cc1ccccn1)c1cccs1` (stereo not drawn) the Potency was inconclusive: 0.708 µM [cytotoxic, full curve, poor fit]. In the case of `O=C(Nc1ccccc1O)c1c(O)c2c([nH]c1=O)CCCC2`, the Potency is reported as inconclusive: 17.8 µM [falling, single point]. With `C=CC#CC[N+]1(CC#Cc2ccccc2)CCOCC1` the activity change, negative = inhibition was “inactive”. For `O=C(CSc1cn[nH]n1)Nc1ccccc1C(=O)O`, the Potency was inconclusive: 22.4 µM [falling, partial curve]. With `Cc1cccc(C)c1NC(=S)N/N=C1\CC2CC=CC12` (stereo not drawn) the Potency was inconclusive: 35.5 µM [falling, single point]. In the case of `Cc1ccc(S(=O)(=O)Nc2cccc(C(=O)Nc3cc(C)ccn3)c2)cc1`, the activity change, negative = inhibition is reported as inconclusive: 18.3%. For `CCOC(=O)C1C(=O)C(C(C)=O)C(=O)CC1CC(C)SCC` (stereo not drawn), the activity change, negative = inhibition was inconclusive: -10.8%. With `O=C(NC(NC(=S)Nc1c(Cl)cccc1Cl)C(Cl)(Cl)Cl)c1cccc([N+](=O)[O-])c1` (stereo not drawn) the activity change, negative = inhibition was inconclusive: 17.2%. With `COC(=O)c1ccccc1NC(=O)/C=N/O` the activity change, negative = inhibition was “inactive”. For `C=CCNC(=O)c1ccc(CN(c2ccc(OCC)cc2)S(=O)(=O)c2ccc(C)cc2)cc1`, the activity change, negative = inhibition was “inactive”. For `Cc1cc(=O)oc(C)c1C(=O)Nc1ccc2ncccc2c1`, the activity change, negative = inhibition was inconclusive: -6.44%. With `COc1ccccc1NC(=O)COc1ccc(C(=O)OCC(=O)N(C(C)C)C(C)C)cc1OC` the activity change, negative = inhibition was inconclusive: 6.95%. In the case of `CCN(CC(=O)NC(=O)NC1CCCCC1)Cc1ccccc1`, the activity change, negative = inhibition is reported as “inactive”. In the case of `C/C(=N\NC(=O)c1ccc(CN2CCOCC2)cc1)c1ccc(NC(=O)c2ccccc2)cc1`, the Potency is reported as inconclusive: 35.5 µM [rising, single point]. In the case of `O=C(CCCc1c[nH]c2ccccc12)NCCc1c[nH]c2ccccc12`, the activity change, negative = inhibition is reported as inconclusive: -14.8%. For `O=C(NCc1cccnc1)c1cn(-c2ccccc2)nc1-c1ccccc1`, the activity change, negative = inhibition was “inactive”. For `O=C1CC(N2CCc3ccccc32)C(=O)N1c1ccccc1` (stereo not drawn), the Potency was inconclusive: 15.8 µM [falling, single point]. For `Cc1ccc(S(=O)(=O)NNC2=NCCCCC2)cc1`, the Potency was inconclusive: 17.8 µM [falling, partial curve]. For `O=C(COc1ccc2ccccc2c1)N1c2ccccc2Sc2ccccc21`, the activity change, negative = inhibition was “inactive”. For `COc1ccc2c(c1)[nH]c1c(N3CCN(Cc4ccc5c(c4)OCO5)CC3)ncnc12`, the activity change, negative = inhibition was inconclusive: 7.93%. In the case of `C[n+]1cccc(O)c1SCc1ccccc1`, the Potency is reported as inconclusive: 29.1 µM [falling, single point]. For `c1cncc(CSc2ccc(-c3ccc4c(c3)OCO4)nn2)c1`, the activity change, negative = inhibition was inconclusive: -14%.
